Data published in PubChem BioAssay AID1347075 (National Center for Advancing Translational Sciences (NCATS), 2019).
Screen size: about 400,000 compounds; about 5,500 (1.4%) were called active. Inconclusive results, whose numbers are uncertain, are shown with a selection of clear calls. Calls come from the whole dose curve; as a rule, active = well fitted cell-killing curve with a large enough effect; inconclusive = small, poorly fitted or top-dose-only effect, or effect the other way; inactive = flat fitted curve, though single readings scatter. A potency beside an inconclusive call is a rough fit, not a confirmed value.

Experiment: qHTS assay for MDR1-selective chemotherapeutics: Primary screen using the parental adenocarcinoma cell KB-3-1; note: nearly all actives have a fitted effect of over 60% in size
Settings: KB-3-1 viability, CellTiter-Glo ATP luminescence, 72 h; activity change, negative = cytotoxic: at 46.1 µM (top of the series)
How it was run: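 Multi-concentration cytotoxicity screen in KB-3-1 cells grown in DMEM lacking phenol red with 10% FBS. After 72 h at 37 °C with compound, ATP-dependent luminescence was recorded.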
% is set by controls: 0 for no effect and ±100 for the full control effect; potency is the fitted concentration of half-maximal effect.

Structure (SMILES) | Potency | activity change, negative = cytotoxic
O=C(Nc1ccccc1N(C(=O)c1ccco1)S(=O)(=O)c1cccs1)c1ccco1 | inactive | 
CCc1ccc(S(=O)(=O)N(C(C)=O)c2ccc3oc4c(c3c2)CCCC4)cc1 | inactive | 
O=C(NCCN1CCOCC1)c1ccc(CS(=O)(=O)c2ccc(Cl)cc2)o1 | inactive | 
C=CCNc1nc(NCCOc2ccccc2Cl)c2sc(-c3ccccc3)cc2n1 | inconclusive: 29.1 µM [cytotoxic, single point] | 
CC1CN(S(=O)(=O)c2ccc(C(=O)Nc3nnc(-c4ccccn4)o3)cc2)CC(C)O1 (stereo not drawn) | inactive | 
COc1ccccc1-c1nc(-c2ccccc2)nc(N2CCN(C)CC2)c1C#N | inconclusive: 23.1 µM [cytotoxic, partial curve, poor fit] | 
O=C(Cn1cc(COc2cccc([N+](=O)[O-])c2)nn1)c1ccc(O)cc1 | inactive | 
Cc1csc(CNc2ncnc3ccc(-c4ccc5c(c4)OCCO5)cc23)c1 | inconclusive: 18.4 µM [cytotoxic, single point] | 
CCCn1cc(S(=O)(=O)c2ccc(C)cc2)c(=O)c2cc(OCC)ccc21 | inconclusive: 5.17 µM [rising, full curve] | 
CCN(CC)CCOC(=O)c1ccc(NC(=O)c2cc3cccc(OC)c3oc2=O)cc1 | inactive | 
CC1c2ccccc2-c2ccccc2N1C (stereo not drawn) | inactive | 
Cc1nn(CC(=O)N(CC(C)C)C2CCS(=O)(=O)C2)c(C)c1[N+](=O)[O-] (stereo not drawn) | inconclusive: 0.103 µM [rising, full curve] | 
O=C(NCC(c1ccco1)N1CCCCC1)c1ccc([N+](=O)[O-])s1 (stereo not drawn) | inconclusive: 14.6 µM [cytotoxic, partial curve, poor fit] | 
CCOC(=O)c1c(NC(=O)CSc2cn(CCNC(=O)c3c(F)cccc3F)c3ccccc23)sc2c1CCCC2 | inconclusive: 16.4 µM [cytotoxic, partial curve] | 
C[C@](N)(Cc1ccc(O)c(O)c1)C(=O)O | inactive | 
c1cc(-c2nsc(-c3ccncc3)n2)ccn1 | inconclusive: 14.6 µM [cytotoxic, single point] | 
CN(CCC#N)C(=O)COC(=O)c1c2c(nc3ccccc13)/C(=C/c1ccco1)CC2 | inactive | 
Cc1ccc(Cl)cc1N1CCN(S(=O)(=O)c2ccc(-c3cnc(C4CC4)o3)cc2)CC1 | inconclusive: 29.1 µM [cytotoxic, single point] | 
O=[N+]([O-])c1ccc(C=NNC(=S)Nc2ccc(F)cc2)cc1 | inactive | 
CCOc1ccc2nc(NC(=O)c3ccoc3C)sc2c1 | active: 10.3 µM | 
COc1ccc(CCC(=O)Nc2ccc(S(=O)(=O)N3CCOCC3)cc2)cc1OC | inactive | 
Cc1ccc(SCCC(=O)Nc2ccc(Br)c(C)c2)cc1 | inconclusive: 23.1 µM [cytotoxic, partial curve, poor fit] | 
Cc1c(C(=O)NCc2ccc([N+](=O)[O-])cc2)sc(=O)n1Cc1ccc2c(c1)OCO2 | inactive | 

Structure (SMILES) | Potency | activity change, negative = cytotoxic
CC(C)(C)NS(=O)(=O)c1ccc2nc(NC(=O)Cc3cccs3)sc2c1 | inconclusive: 16.4 µM [cytotoxic, partial curve, poor fit] | 
O=C(NCCc1cn2ccccc2n1)C1CCCCC1 | inconclusive: 18.4 µM [rising, partial curve, poor fit] | 
O=C(Nc1sc2c(c1C(=O)NCC(O)CO)CCCC2)c1ccccc1 (stereo not drawn) | inconclusive: 2.31 µM [rising, partial curve, poor fit] | 
COc1cc2c(C(=O)N3CCN(c4cc(Cl)ccc4C)CC3)cn(CC(C)C)c(=O)c2cc1OC | inconclusive: 13 µM [rising, partial curve, poor fit] | 
FC(F)(F)c1cccc(OCC2CNC(=S)O2)c1 (stereo not drawn) | inactive | 
O=C(NCCc1ccccc1)C(=S)N1CCCCC1 | inconclusive: 0.0073 µM [rising, full curve] | 
CNC(=O)c1c(NC(=O)C2=COCCO2)sc2c1CCCC2 | inconclusive: 18.4 µM [rising, single point] | 
OCCN(CCO)CC(O)COc1ccc(C23CC4CC(CC(C4)C2)C3)cc1 (stereo not drawn) | inactive | 
CCOC(=O)[C@H]1[C@H]2COc3ccc(Br)cc3[C@@H]2N2C(=O)CN(Cc3ccccc3)C(=O)[C@@]12C | inactive | 
CCN(C(=O)CSc1ccccn1)C1CCCCC1 | inconclusive: 18.4 µM [cytotoxic, single point] | 
CNC(=O)c1ccc(Nc2nnc(-c3ccc(C)c(S(=O)(=O)NCC4CCCO4)c3)c3ccccc23)cc1 (stereo not drawn) | inactive | 
O=C1Nc2ccccc2N=C(c2ccc3c(c2)OCO3)C1N(CCc1ccccc1)C(=O)CSc1ncccn1 (stereo not drawn) | inconclusive: 29.1 µM [cytotoxic, single point] | 
COc1ccc([N+](=O)[O-])cc1NC(=O)CSCc1ccc(Br)cc1 | inconclusive: 32.6 µM [cytotoxic, single point] | 
COc1ccc(-c2nnc(SCC(=O)Nc3ccc4c(c3)OCCO4)n2N)cc1OC | inactive | 
CCCOc1ccc(-c2cccc(NS(=O)(=O)c3ccc(CC)cc3)c2)nn1 | inactive | 
Cc1ccc2nc(NC(=O)c3ccc(OCC4CCCO4)cc3)sc2c1 (stereo not drawn) | inconclusive: 29.1 µM [cytotoxic, single point] | 
NC(=O)COC(=O)[C@H](Cc1c[nH]c2ccccc12)NC(=O)c1ccc(F)cc1 | inconclusive: 16.4 µM [rising, single point] | 
CCS(=O)(=O)c1nc(S(=O)(=O)c2ccc(C)cc2)c(N2CCOCC2)s1 | inconclusive: 0.58 µM [cytotoxic, full curve, poor fit] | 
Cc1ccc(NC(=O)CSc2nc3c([nH]c4ccccc43)c(=O)n2C)cc1 | inconclusive: 29.1 µM [cytotoxic, single point] | 
CCN1CCN(C(c2cccnc2)c2cc(Cl)c3cccnc3c2O)CC1 (stereo not drawn) | active: 7.31 µM | 
CCn1ccc2cc(S(=O)(=O)N3CCCN(C(=O)Nc4ccc(C)cc4)CC3)ccc21 | inconclusive: 29.1 µM [rising, single point] | 
CCN(CC)S(=O)(=O)c1ccc(NC(=O)[C@H](CCSC)N2Cc3ccccc3C2=O)cc1 | inconclusive: 20.6 µM [cytotoxic, partial curve, poor fit] | 
CCOc1ccc(/C=C2\SC(=S)NC2=O)cc1OC | inactive | 

A run of entries taken from the entries so far, for reference:
Structure (SMILES) | Potency | activity change, negative = cytotoxic
CCN(CC)CCOC(=O)c1ccc(NC(=O)c2cc3cccc(OC)c3oc2=O)cc1 | inactive | 
CC1c2ccccc2-c2ccccc2N1C (stereo not drawn) | inactive | 
Cc1nn(CC(=O)N(CC(C)C)C2CCS(=O)(=O)C2)c(C)c1[N+](=O)[O-] (stereo not drawn) | inconclusive: 0.103 µM [rising, full curve] | 

Remaining list, next part.

Structure (SMILES) | Potency | activity change, negative = cytotoxic
Clc1ccc(C[n+]2cc(-c3ccccc3)n3c2CCC3)cc1Cl | inconclusive: 20.6 µM [cytotoxic, partial curve, poor fit] | 
CCn1c(/C(C#N)=N/O)nc2ccccc21 | inactive | 
O=C(Nc1ccccc1)c1nc[nH]c1C(=O)NCCN(CCNC(=O)c1[nH]cnc1C(=O)Nc1ccccc1)CCNC(=O)c1[nH]cnc1C(=O)Nc1ccccc1 | inconclusive: 29.1 µM [cytotoxic, single point] | 
Cc1ccc(NS(=O)(=O)c2cc(NC(=O)C(C)Oc3ccccc3)ccc2C)c(C)c1 (stereo not drawn) | inconclusive: 18.4 µM [cytotoxic, single point] | 
COC(=O)c1sccc1NC(=O)CN(C)NS(=O)(=O)c1ccc([N+](=O)[O-])cc1 | inconclusive: 7.31 µM [cytotoxic, partial curve, poor fit] | 
CCC(=O)OCCNc1cc(Sc2nc3ccccc3[nH]2)c2nonc2c1[N+](=O)[O-] | active: 23.1 µM | 
CC1=C(C(=O)N(C(C)C)C(C)C)CC(CC(=O)NC(c2ccccc2)c2ccccc2)C(=O)N1Cc1ccc(C(C)(C)C)cc1 (stereo not drawn) | inconclusive: 29.1 µM [cytotoxic, single point] | 
CSc1nnc(NC(=O)c2nc(S(=O)(=O)Cc3ccc(C)cc3)ncc2Cl)s1 | active: 16.4 µM | 
CCN(CC)CC(C)(C)C(=O)/C=C/c1ccc(/C=C/C(=O)C(C)(C)CN(CC)CC)cc1 | inconclusive: 3.26 µM [cytotoxic, partial curve, poor fit] | 
Nc1c(Cl)cc(C2=NCCn3c2c2ccc([N+](=O)[O-])cc2[n+]3[O-])cc1Cl | inconclusive: 32.6 µM [cytotoxic, single point] | 
O=C(Nc1nc2c(Cl)cccc2s1)C1CC1 |  | inconclusive: -21.5%
CCOc1cc(CNC2CCCC2)ccc1OCc1ccccc1Cl | inconclusive: 20.6 µM [cytotoxic, single point] | 
COc1ccccc1NS(=O)(=O)c1cc(NC(=O)c2ccc(NC(C)=O)cc2)ccc1N1CCOCC1 | inconclusive: 11.6 µM [cytotoxic, partial curve] | 
Cc1ccc2c(c1)C1(SCCS1)C(=O)N2 | inconclusive: 16.4 µM [cytotoxic, single point] | 
Cc1cc(N=Cc2c(O)n(-c3ccc4c(c3)OCO4)c(=O)c3ccccc23)ccn1 | inconclusive: 29.1 µM [cytotoxic, single point] | 
NC(=O)Cn1c(=O)n(-c2ccc(F)c(Cl)c2)c(=O)c2sc3ccccc3c21 | inactive | 
CCOc1ccc(NC(=O)c2ccc3c(c2)c(C)c(C)n3Cc2ccc(F)cc2)cc1 | inconclusive: 16.4 µM [cytotoxic, partial curve, poor fit] | 
CCOc1ccc(/C=N/Nc2nc(C)cs2)c(O)c1 | inconclusive: 25.9 µM [cytotoxic, single point] | 
O=C(Nc1nc(-c2ccccn2)cs1)c1cccc(S(=O)(=O)N2CCOCC2)c1 | inconclusive: 20.6 µM [cytotoxic, partial curve, poor fit] | 
O=C(N/N=C/c1cccnc1)c1ccccc1OCc1ccc(Br)cc1 | inactive | 
CCOc1cc(C(=S)N2CCC(O)CC2)ccc1OS(=O)(=O)c1ccc(Br)cc1 | inactive | 
O=C(c1cn(-c2ccccc2)nc1-c1ccccc1)N1CCN(c2ccccn2)CC1 | inconclusive: 29.1 µM [cytotoxic, single point] | 
